Among the data in article PMC7083937, “The ribosome-associated complex RAC serves in a relay that directs nascent chains to Ssb” (Nature Communications, 2020) are binding values, retold here.

Sequences of proteins named here, by UniProt entry; tags and fusion partners are left off. A change or cut given only in a name is not applied to a line headed by its entry.
UniProt P32527: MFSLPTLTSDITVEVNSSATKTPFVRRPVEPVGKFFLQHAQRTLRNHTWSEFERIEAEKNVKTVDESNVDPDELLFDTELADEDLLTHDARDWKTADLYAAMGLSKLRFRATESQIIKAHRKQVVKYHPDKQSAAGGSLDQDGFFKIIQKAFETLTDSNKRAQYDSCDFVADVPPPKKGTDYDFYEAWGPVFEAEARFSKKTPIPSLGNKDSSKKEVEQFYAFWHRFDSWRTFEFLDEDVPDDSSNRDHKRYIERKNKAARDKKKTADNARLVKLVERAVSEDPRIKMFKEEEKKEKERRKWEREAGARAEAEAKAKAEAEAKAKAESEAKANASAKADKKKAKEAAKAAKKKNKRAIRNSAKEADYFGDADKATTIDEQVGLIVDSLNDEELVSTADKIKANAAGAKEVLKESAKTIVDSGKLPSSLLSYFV

Test [1] deals with T1, nascent Pgk1-100 (100 residues) (S. cerevisiae) (UniProt P00560).
T1 sequence (chain, [35S]-methionine labelled): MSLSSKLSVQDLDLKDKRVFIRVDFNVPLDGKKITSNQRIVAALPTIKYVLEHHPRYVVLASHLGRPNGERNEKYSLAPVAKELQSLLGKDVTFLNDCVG
Briefly: cross-linking; as a9, ribosome-free extract from Δssb1Δssb2 RACmut-ΔN8 (Zuo1-ΔN8, Ssz1mut) added.

The target of test [2] is T1, nascent Pgk1-100 (100 residues) (S. cerevisiae). Briefly: cross-linking; as a10; RNCs isolated, LP-peptide or NR-peptide added to the resuspended RNCs before the cross-linking reaction; nascent chain with Ssz1 or Zuo1-ΔN8.
Test [3] has the same target. Kind of test: cross-linking; as a9, ribosome-free extract from Δssb1Δssb2 RAC-ΔN8 (Zuo1-ΔN8, Ssz1) added.
For test [4] the target is unchanged. Kind of test: cross-linking; as a4, ribosome-free extract from Δzuo1 expressing Zuo1-ΔN49 (Ssb, Zuo1-ΔN49, Ssz1) added.

Results are given in words; binding and its absence hold for the method and conditions named. In cells and extracts the contact can be indirect. Binding calls can cover weak binding; strength is not graded here.

In the case of “Zuo1-ΔN8 (Zuo1 with a deletion of the LP-motif) (from UniProt P32527) (domain or fragment)”, the binding result in test [1], in test [2] and in test [3] was “binds” in each case.

With “Zuo1-ΔN49 (N-terminally truncated Zuo1) (from UniProt P32527) (domain or fragment)”, the binding result in test [4] is on record as “binds”.
